# Measurements as given in the supplement of paper PMC12823440, “Inhibitors supercharge kinase turnover through native proteolytic circuits” (Nature, 2025).
# By UniProt entry, the sequences of proteins in these tests, tags left out.
# UniProt P22607, whole entry, looked up: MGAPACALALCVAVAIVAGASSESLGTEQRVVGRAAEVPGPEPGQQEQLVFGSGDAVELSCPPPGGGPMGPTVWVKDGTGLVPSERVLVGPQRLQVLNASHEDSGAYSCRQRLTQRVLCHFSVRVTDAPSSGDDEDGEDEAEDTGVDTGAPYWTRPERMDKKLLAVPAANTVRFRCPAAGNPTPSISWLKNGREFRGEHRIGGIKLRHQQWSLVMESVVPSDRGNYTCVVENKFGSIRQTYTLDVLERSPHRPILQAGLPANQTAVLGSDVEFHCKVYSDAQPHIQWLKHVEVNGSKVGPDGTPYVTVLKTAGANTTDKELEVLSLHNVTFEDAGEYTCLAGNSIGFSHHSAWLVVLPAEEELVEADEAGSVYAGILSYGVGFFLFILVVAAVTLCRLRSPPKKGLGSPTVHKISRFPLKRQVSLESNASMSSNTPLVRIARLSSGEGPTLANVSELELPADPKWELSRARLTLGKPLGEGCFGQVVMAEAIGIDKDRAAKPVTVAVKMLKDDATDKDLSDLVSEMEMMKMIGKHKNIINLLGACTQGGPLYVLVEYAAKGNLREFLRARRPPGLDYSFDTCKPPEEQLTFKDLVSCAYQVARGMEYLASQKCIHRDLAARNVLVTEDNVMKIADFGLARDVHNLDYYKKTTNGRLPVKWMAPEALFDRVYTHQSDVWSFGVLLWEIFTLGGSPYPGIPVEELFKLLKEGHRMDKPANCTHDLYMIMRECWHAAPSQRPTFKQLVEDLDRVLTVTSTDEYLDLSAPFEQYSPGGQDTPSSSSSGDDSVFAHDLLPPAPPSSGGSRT
# Counter-ions that a name gives are not always drawn. Some of the results follow. The calls rarely recur for the same compound in another form.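 Kinases were expressed as nanoluciferase fusions in K562 cells and luminescence was read every 4 h between 2 and 18 h as percent of control, DMSO set to 100% and a positive control to 0%. A time point counts as decreased when the signal drops significantly (2 sigma). The hit call is the authors' own, does not follow from the count of time points alone, and its rule is not shown.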
# Target: FGFR3 (UniProt P22607)
# Experiment: kinase-Nluc reporter destabilization hit call (1 = scored as downregulated) (binary); higher = compound decreases kinase abundance
# Conditions: K562; 2-18 h
row,SMILES,kinase-Nluc reporter destabilization hit call
1,C[C@H]1CC[C@]2(NC1)O[C@H]1C[C@H]3[C@@H]4CC[C@H]5C[C@@H](O)CC[C@]5(C)[C@H]4CC[C@]3(C)[C@H]1[C@@H]2C [Tomatidine] (2 µM),inactive: 0
2,O=Cc1cn(Cc2ccc(Cl)cc2)c2ccccc12 [Oncrasin-1] (10 µM),inactive: 0
3,O=[N+]([O-])/C=C/c1ccc2c(c1)OCO2 (2.5 µM),inactive: 0
4,CCN1CCN(C(=O)Cc2ccc(Nc3ncc(F)c(Nc4ccc(C(=O)Nc5ccccc5Cl)cc4)n3)cc2)CC1 (2.5 µM),inactive: 0
5,COc1ccc2c(c[n+](C)c3c4cc5c(cc4ccc23)OCO5)c1OC [Chelerythrine (chloride)] (10 µM),inactive: 0
6,COC[C@H]1OC(=O)c2coc3c2[C@@]1(C)C1=C(C3=O)[C@@H]2CCC(=O)[C@@]2(C)C[C@H]1OC(C)=O [Wortmannin] (2.5 µM),inactive: 0
7,C[C@H]1CC[C@]2(NC1)O[C@H]1C[C@H]3[C@@H]4CC[C@H]5C[C@@H](O)CC[C@]5(C)[C@H]4CC[C@]3(C)[C@H]1[C@@H]2C [Tomatidine (hydrochloride)] (10 µM),inactive: 0
8,COc1ccc(/C=C/c2cc(OC)c(OC)c(OC)c2)cc1 (2.5 µM),inactive: 0
9,O=c1cc(O)c2ccccc2o1 [4-Hydroxycoumarin] (10 µM),inactive: 0
10,C=CC(=O)N[C@H]1C=C(C)c2c(-c3cnc4ccccc4c3)c3c(N)ncnc3n2C1 (10 µM),inactive: 0
11,N#CC(C#N)=Cc1ccc([N+](=O)[O-])c(O)c1 (10 µM),inactive: 0
12,O=C(O)c1sc2cc(Cl)ccc2c1Cl (10 µM),inactive: 0
13,Cc1n[nH]cc1-c1cc2nc([C@@H]3CC4CCN3CC4)[nH]c(=O)c2s1 [Simurosertib] (2.5 µM),inactive: 0
14,Cn1cc(C2=C(c3cn(C4CCN(Cc5ccccn5)CC4)c4ccccc34)C(=O)NC2=O)c2ccccc21 [Enzastaurin] (10 µM),inactive: 0
15,CN(C)C(=O)c1ccc(Cn2c(C(=O)O)cc3c(Br)cc(Sc4ccc(Cl)c(Cl)c4)cc32)cc1 [Rheb inhibitor NR1] (10 µM),inactive: 0
16,C/C(O)=C(\C#N)C(=O)Nc1cc(Br)ccc1Br (10 µM),inactive: 0
17,O=C1c2ccccc2C(=O)c2c1cccc2-c1cnn(C2CCNCC2)c1 [PDK4-IN-1 (hydrochloride)] (10 µM),inactive: 0
18,COc1ccc(N(C(=O)Oc2c(C)cccc2C)c2ccnc(Nc3ccc(N4CCN(C)CC4)cc3)n2)c(OC)c1 (2.5 µM),inactive: 0
19,C[C@@H]1CC[C@H]2[C@@H](C)C(=O)O[C@@H]3O[C@@]4(C)CC[C@@H]1[C@]32OO4 [Artemisinin] (10 µM),inactive: 0
20,CC(C)(C)c1cc(C=C(C#N)C#N)cc(Br)c1O (2.5 µM),inactive: 0
21,CC1=C[C@]23C(=O)[C@@H](C=C(CO)[C@@H](O)[C@]2(O)[C@H]1O)[C@H]1[C@@H](C[C@H]3C)C1(C)C [Ingenol] (10 µM),inactive: 0

# Target: FGR (UniProt P09769)
# Experiment: as above
# Conditions: K562; 2-18 h
row,SMILES,kinase-Nluc reporter destabilization hit call
1,O=c1[nH]c2ccccc2n1C1CCN(Cc2ccc(-c3[nH]c4cc5ncnc5cc4nc3-c3ccccc3)cc2)CC1 [AKT inhibitor VIII] (2.5 µM),inactive: 0
2,C[C@H]1CC[C@]2(NC1)O[C@H]1C[C@H]3[C@@H]4CC[C@H]5C[C@@H](O[C@@H]6O[C@H](CO)[C@H](O[C@@H]7O[C@H](CO)[C@@H](O)[C@H](O[C@@H]8OC[C@@H](O)[C@H](O)[C@H]8O)[C@H]7O[C@@H]7O[C@H](CO)[C@@H](O)[C@H](O)[C@H]7O)[C@H](O)[C@H]6O)CC[C@]5(C)[C@H]4CC[C@]3(C)[C@H]1[C@@H]2C [Tomatine] (2.5 µM),inactive: 0
3,C=C[C@H]1CN2CC[C@]3(C(=O)Nc4ccccc43)[C@@H]2C[C@@H]1/C(=C\OC)C(=O)OC [Corynoxeine] (2 µM),inactive: 0
4,C=CC(=O)Nc1ccc2[nH]c(=O)n(C3CCN(Cc4ccc(-c5nc6cc[nH]c(=O)c6cc5-c5ccccc5)cc4)CC3)c2c1 [Borussertib] (10 µM),inactive: 0
5,CCOC(=O)c1c(/C(C#N)=C\N)c2ccc(Cl)c(Cl)c2n1C (10 µM),inactive: 0
6,CC(=O)OC(C)(C)/C=C/C(=O)[C@](C)(O)[C@H]1[C@H](O)C[C@@]2(C)[C@@H]3CC=C4[C@@H](C=C(O)C(=O)C4(C)C)[C@]3(C)C(=O)C[C@]12C [Cucurbitacin E] (2.5 µM),inactive: 0
7,Cc1[nH]ncc1-c1cc2nc([C@H]3CC4CCN3CC4)[nH]c(=O)c2s1 [(R)-Simurosertib] (10 µM),inactive: 0
8,C[C@H]1CC[C@]2(NC1)O[C@H]1C[C@H]3[C@@H]4CC[C@H]5C[C@@H](O)CC[C@]5(C)[C@H]4CC[C@]3(C)[C@H]1[C@@H]2C [Tomatidine] (2 µM),inactive: 0
9,O=Cc1cn(Cc2ccc(Cl)cc2)c2ccccc12 [Oncrasin-1] (10 µM),inactive: 0
10,O=[N+]([O-])/C=C/c1ccc2c(c1)OCO2 (2.5 µM),inactive: 0
11,CCN1CCN(C(=O)Cc2ccc(Nc3ncc(F)c(Nc4ccc(C(=O)Nc5ccccc5Cl)cc4)n3)cc2)CC1 (2.5 µM),inactive: 0
12,COc1ccc2c(c[n+](C)c3c4cc5c(cc4ccc23)OCO5)c1OC [Chelerythrine (chloride)] (10 µM),inactive: 0
13,COC[C@H]1OC(=O)c2coc3c2[C@@]1(C)C1=C(C3=O)[C@@H]2CCC(=O)[C@@]2(C)C[C@H]1OC(C)=O [Wortmannin] (2.5 µM),inactive: 0
14,C[C@H]1CC[C@]2(NC1)O[C@H]1C[C@H]3[C@@H]4CC[C@H]5C[C@@H](O)CC[C@]5(C)[C@H]4CC[C@]3(C)[C@H]1[C@@H]2C [Tomatidine (hydrochloride)] (10 µM),inactive: 0
15,COc1ccc(/C=C/c2cc(OC)c(OC)c(OC)c2)cc1 (2.5 µM),inactive: 0
16,O=c1cc(O)c2ccccc2o1 [4-Hydroxycoumarin] (10 µM),inactive: 0
17,C=CC(=O)N[C@H]1C=C(C)c2c(-c3cnc4ccccc4c3)c3c(N)ncnc3n2C1 (10 µM),inactive: 0
18,N#CC(C#N)=Cc1ccc([N+](=O)[O-])c(O)c1 (10 µM),inactive: 0
19,O=C(O)c1sc2cc(Cl)ccc2c1Cl (10 µM),inactive: 0
20,Cc1n[nH]cc1-c1cc2nc([C@@H]3CC4CCN3CC4)[nH]c(=O)c2s1 [Simurosertib] (2.5 µM),inactive: 0
21,Cn1cc(C2=C(c3cn(C4CCN(Cc5ccccn5)CC4)c4ccccc34)C(=O)NC2=O)c2ccccc21 [Enzastaurin] (10 µM),inactive: 0
22,CN(C)C(=O)c1ccc(Cn2c(C(=O)O)cc3c(Br)cc(Sc4ccc(Cl)c(Cl)c4)cc32)cc1 [Rheb inhibitor NR1] (10 µM),inactive: 0
23,C/C(O)=C(\C#N)C(=O)Nc1cc(Br)ccc1Br (10 µM),inactive: 0
24,O=C1c2ccccc2C(=O)c2c1cccc2-c1cnn(C2CCNCC2)c1 [PDK4-IN-1 (hydrochloride)] (10 µM),inactive: 0
25,COc1ccc(N(C(=O)Oc2c(C)cccc2C)c2ccnc(Nc3ccc(N4CCN(C)CC4)cc3)n2)c(OC)c1 (2.5 µM),inactive: 0
26,C[C@@H]1CC[C@H]2[C@@H](C)C(=O)O[C@@H]3O[C@@]4(C)CC[C@@H]1[C@]32OO4 [Artemisinin] (10 µM),inactive: 0
27,CC(C)(C)c1cc(C=C(C#N)C#N)cc(Br)c1O (2.5 µM),inactive: 0
28,CC1=C[C@]23C(=O)[C@@H](C=C(CO)[C@@H](O)[C@]2(O)[C@H]1O)[C@H]1[C@@H](C[C@H]3C)C1(C)C [Ingenol] (10 µM),inactive: 0
